Assay results published in patent publication US8895587B2, “Insecticidal compounds based on arylthioacetamide derivatives” (Syngenta Participations AG, priority 2011, dated 2014).
Some results were stated once for a whole list of compounds, not compound by compound.

Test system: Plutella xylostella
Assay: Plutella xylostella (diamond back moth) larval test on artificial diet
Format: in vivo
Details: application rate 200 ppm (concentration in well 18 ppm); L2 larvae on artificial diet; 6 days
Experimental: 24-well microtiter plate (MTP) with artificial diet was treated with test solutions at an application rate of 200 ppm (concentration in well 18 ppm) by pipetting. After drying, the MTP's were infested with L2 larvae (7-12 per well). After an incubation period of 6 days, samples were checked for larval mortality and growth regulation.

Question: For “2-[4-[3-(3,5-dichlorophenyl)-3-(trifluoromethyl)pyrrolidin-1-yl]-2-methyl-phenyl]sulfanyl-N-(2,2,2-trifluoroethyl)acetamide [Compound H1]”, which “control of Plutella xylostella” value is on record?
Answer: Its value is “at least 80%”.
